Like-named read-outs stand apart in the source and are kept apart here. This continues a long series; more values of the same kind are listed elsewhere.
Target: M^pro (Severe acute respiratory syndrome coronavirus 2, UniProt P0DTD1)
Assay type: binding

## CC(C)C[C@H](NC(=O)OCc1ccccc1)C(=O)N[C@H](/C=C/[N+](=O)[O-])C[C@@H]1CCNC1=O [FGA147]
25 mM, 20 °C
  Fraction unfolded: 0.01414
25 mM, 20.5 °C
  Fraction unfolded: 0.04278
25 mM, 21 °C
  Fraction unfolded: 0.01683
25 mM, 32.5 °C
  Fraction unfolded: -0.03613
25 mM, 33 °C
  Fraction unfolded: 0.01483
25 mM, 33.5 °C
  Fraction unfolded: 0.05004
25 mM, 34 °C
  Fraction unfolded: 0.01192
25 mM, 34.5 °C
  Fraction unfolded: -0.01503
25 mM, 35 °C
  Fraction unfolded: -0.01349
25 mM, 35.5 °C
  Fraction unfolded: -0.01483
25 mM, 36 °C
  Fraction unfolded: 0.01414
25 mM, 36.5 °C
  Fraction unfolded: -0.01034
25 mM, 37 °C
  Fraction unfolded: 0.01683
25 mM, 37.5 °C
  Fraction unfolded: 0.04278
25 mM, 38 °C
  Fraction unfolded: 0.07148
25 mM, 38.5 °C
  Fraction unfolded: -0.01421
25 mM, 39 °C
  Fraction unfolded: -0.05389
25 mM, 39.5 °C
  Fraction unfolded: -0.01968
25 mM, 40 °C
  Fraction unfolded: 0.09885
25 mM, 40.5 °C
  Fraction unfolded: 0.01751
25 mM, 41 °C
  Fraction unfolded: -0.01678
25 mM, 41.5 °C
  Fraction unfolded: 0.1948
25 mM, 42 °C
  Fraction unfolded: 0.138
25 mM, 42.5 °C
  Fraction unfolded: 0.09827
25 mM, 43 °C
  Fraction unfolded: 0.1578
25 mM, 43.5 °C
  Fraction unfolded: 0.2799
25 mM, 44 °C
  Fraction unfolded: 0.2792
25 mM, 44.5 °C
  Fraction unfolded: 0.4175
25 mM, 45 °C
  Fraction unfolded: 0.2379
25 mM, 45.5 °C
  Fraction unfolded: 0.3457
25 mM, 46 °C
  Fraction unfolded: 0.4723
25 mM, 46.5 °C
  Fraction unfolded: 0.5358
25 mM, 47 °C
  Fraction unfolded: 0.6206
25 mM, 47.5 °C
  Fraction unfolded: 0.6097
25 mM, 48 °C
  Fraction unfolded: 0.6107
25 mM, 48.5 °C
  Fraction unfolded: 0.7639
25 mM, 49 °C
  Fraction unfolded: 0.8307
25 mM, 49.5 °C
  Fraction unfolded: 0.9672
25 mM, 50 °C
  Fraction unfolded: 0.8593
25 mM, 50.5 °C
  Fraction unfolded: 0.8947
25 mM, 51 °C
  Fraction unfolded: 0.8707
25 mM, 51.5 °C
  Fraction unfolded: 0.9572
25 mM, 52 °C
  Fraction unfolded: 0.9094
25 mM, 52.5 °C
  Fraction unfolded: 0.9702
25 mM, 53 °C
  Fraction unfolded: 0.8904
25 mM, 53.5 °C
  Fraction unfolded: 0.9069
25 mM, 54 °C
  Fraction unfolded: 0.9966
25 mM, 54.5 °C
  Fraction unfolded: 0.9681
25 mM, 55 °C
  Fraction unfolded: 1.053
25 mM, 55.5 °C
  Fraction unfolded: 0.9786
25 mM, 56 °C
  Fraction unfolded: 1.017
25 mM, 56.5 °C
  Fraction unfolded: 1.052
25 mM, 57 °C
  Fraction unfolded: 0.9706
25 mM, 57.5 °C
  Fraction unfolded: 1.006
25 mM, 58 °C
  Fraction unfolded: 0.9637
25 mM, 58.5 °C
  Fraction unfolded: 1.043
25 mM, 59 °C
  Fraction unfolded: 0.9975
25 mM, 59.5 °C
  Fraction unfolded: 1.025
25 mM, 60 °C
  Fraction unfolded: 1.003
25 mM, 60.5 °C
  Fraction unfolded: 1.081
25 mM, 61 °C
  Fraction unfolded: 1.0453
25 mM, 61.5 °C
  Fraction unfolded: 0.9925
25 mM, 62 °C
  Fraction unfolded: 1.0196
25 mM, 62.5 °C
  Fraction unfolded: 0.9435
25 mM, 63 °C
  Fraction unfolded: 1.003
25 mM, 63.5 °C
  Fraction unfolded: 0.9848
25 mM, 64 °C
  Fraction unfolded: 1.005
25 mM, 64.5 °C
  Fraction unfolded: 0.9404
25 mM, 65 °C
  Fraction unfolded: 1.075
25 mM, 65.5 °C
  Fraction unfolded: 1.061
25 mM, 66 °C
  Fraction unfolded: 1.164
100 mM, 20 °C
  Fraction unfolded: 0.06732
100 mM, 20.5 °C
  Fraction unfolded: -0.02735
100 mM, 21 °C
  Fraction unfolded: 0.01656
100 mM, 32.5 °C
  Fraction unfolded: 0.01094
100 mM, 33 °C
  Fraction unfolded: 0.02167
100 mM, 33.5 °C
  Fraction unfolded: -0.03337
100 mM, 34 °C
  Fraction unfolded: -0.04925
100 mM, 34.5 °C
  Fraction unfolded: -0.01302
100 mM, 35 °C
  Fraction unfolded: 0.0174
100 mM, 35.5 °C
  Fraction unfolded: 0.07455
100 mM, 36 °C
  Fraction unfolded: -0.07318
100 mM, 36.5 °C
  Fraction unfolded: 0.02179
100 mM, 37 °C
  Fraction unfolded: -0.00134
100 mM, 37.5 °C
  Fraction unfolded: 0.02966
100 mM, 38 °C
  Fraction unfolded: 0.1339
100 mM, 38.5 °C
  Fraction unfolded: 0.1915
100 mM, 39 °C
  Fraction unfolded: 0.2438
100 mM, 39.5 °C
  Fraction unfolded: 0.2709
100 mM, 40 °C
  Fraction unfolded: 0.1422
100 mM, 40.5 °C
  Fraction unfolded: 0.1739
100 mM, 41 °C
  Fraction unfolded: 0.163
100 mM, 41.5 °C
  Fraction unfolded: 0.3283
100 mM, 42 °C
  Fraction unfolded: 0.2639
100 mM, 42.5 °C
  Fraction unfolded: 0.3713
100 mM, 43 °C
  Fraction unfolded: 0.4067
100 mM, 43.5 °C
  Fraction unfolded: 0.4356
100 mM, 44 °C
  Fraction unfolded: 0.4743
100 mM, 44.5 °C
  Fraction unfolded: 0.5054
100 mM, 45 °C
  Fraction unfolded: 0.5092
100 mM, 45.5 °C
  Fraction unfolded: 0.5279
100 mM, 46 °C
  Fraction unfolded: 0.4652
100 mM, 46.5 °C
  Fraction unfolded: 0.6925
100 mM, 47 °C
  Fraction unfolded: 0.5814
100 mM, 47.5 °C
  Fraction unfolded: 0.7855
100 mM, 48 °C
  Fraction unfolded: 0.683
100 mM, 48.5 °C
  Fraction unfolded: 0.722
100 mM, 49 °C
  Fraction unfolded: 0.6909
100 mM, 49.5 °C
  Fraction unfolded: 0.757
100 mM, 50 °C
  Fraction unfolded: 0.8623
100 mM, 50.5 °C
  Fraction unfolded: 0.7537
100 mM, 51 °C
  Fraction unfolded: 0.8327
100 mM, 51.5 °C
  Fraction unfolded: 0.7454
100 mM, 52 °C
  Fraction unfolded: 0.777
100 mM, 52.5 °C
  Fraction unfolded: 0.8218
100 mM, 53 °C
  Fraction unfolded: 0.9065
100 mM, 53.5 °C
  Fraction unfolded: 0.8925
100 mM, 54 °C
  Fraction unfolded: 0.8755
100 mM, 54.5 °C
  Fraction unfolded: 0.9263
100 mM, 55 °C
  Fraction unfolded: 0.8788
100 mM, 55.5 °C
  Fraction unfolded: 0.8013
100 mM, 56 °C
  Fraction unfolded: 0.9614
100 mM, 56.5 °C
  Fraction unfolded: 0.8401
100 mM, 57 °C
  Fraction unfolded: 0.9037
100 mM, 57.5 °C
  Fraction unfolded: 0.9507
100 mM, 58 °C
  Fraction unfolded: 0.9987
100 mM, 58.5 °C
  Fraction unfolded: 0.9049
100 mM, 59 °C
  Fraction unfolded: 1.003
100 mM, 59.5 °C
  Fraction unfolded: 0.9407
100 mM, 60 °C
  Fraction unfolded: 0.94
100 mM, 60.5 °C
  Fraction unfolded: 0.9111
100 mM, 61 °C
  Fraction unfolded: 0.8667
100 mM, 61.5 °C
  Fraction unfolded: 1.014
100 mM, 62 °C
  Fraction unfolded: 0.8397
100 mM, 62.5 °C
  Fraction unfolded: 0.9585
100 mM, 63 °C
  Fraction unfolded: 0.9981
100 mM, 63.5 °C
  Fraction unfolded: 1.02
100 mM, 64 °C
  Fraction unfolded: 0.9117
100 mM, 64.5 °C
  Fraction unfolded: 0.9013
100 mM, 65 °C
  Fraction unfolded: 1.068
100 mM, 65.5 °C
  Fraction unfolded: 0.9619
100 mM, 66 °C
  Fraction unfolded: 0.8741
